In all, about 2,000 compounds went through this assay and about 190 (9.5%) were called active. Not shown: some 14% with an inconclusive outcome.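 Rule for the calls: active = fitted activation curve crossing 40% at a concentration no higher than the sample's top valid tested dose; inconclusive = flat fitted curve at 30% to 70% activation, or poor curve fit; inactive = signal decrease, flat curve within 30%, or the rest.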 The list lacks most of the strong results.
Assay: sustained heat shock response element induction – cell-based, mouse, luciferase, cherry-pick, dose, confirmation (AID 602296);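 note: test compounds applied by themselves with no MG132 co-treatment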
Settings: NIH3T3-HGL HSF-1 response element luciferase, 48 h; at 26 µM (top of the series) unless noted

activation, inactive:
Cc1ccc(NNC(=O)c2ccno2)c(C)c1 -50.5%
CCOc1cc(/C=N/NC(=O)Cn2nc([N+](=O)[O-])cc2C)cc(Br)c1OCc1ccccc1C -45.6%
CCC(C)NC(=O)c1nc2c(nnn2Cc2ccccc2Cl)c(=O)[nH]1 (centres undefined) -8.83%
O=c1c2ccccc2sc2nc(C3CCCCC3)n(Cc3ccco3)c(=O)c12 10.6%
CC1(C)CC(=O)C2=C(C1)N1C(=C(C#N)C2c2ccc(Cl)cc2)N=C(N)c2ccccc21 (centres undefined) -53.2% [at 12 µM]
Cc1cc2oc(=O)cc(CSc3nc(N)cc(N)n3)c2cc1C -1.89%
O=C(NC(=S)N1CCN(C/C=C/c2ccccc2)CC1)c1ccc(Cl)nc1 -13.3%
N#Cc1c(-c2ccccc2)c(-c2ccccc2)n(Cc2ccco2)c1NC(=O)c1cccs1 -41.2%
CCn1c(=O)c([N+](=O)[O-])c(Cl)c2ccccc21 -99%
COc1ccc(/C=C/C(O)=C2/C(=O)N(C)C3(C)CC2c2ccccc2O3)cc1 (centres undefined) -4.64%
Cc1ccc(C)c(S(=O)(=O)N2CCCCC2CCNC(=O)C(=O)NCCc2ccco2)c1 (centres undefined) -22.8%
COc1ccc(/C=N/NC(=O)c2cccnc2)c(C(=O)O)c1OC 11.1%
COc1cc(C(=O)Sc2ccc(Cl)cc2)cc(OC)c1OC -94.6%
Cc1cccc(N=Nc2ccc(O)c3ncccc23)c1 11.9%
CN(C)c1ccc(CNC(=O)c2ccc(CNc3c(N4CCCCC4)c(=O)c3=O)cc2)cc1 6.89%
COc1ccc(C)cc1-n1c(SCC(=O)Nc2cccc(C(=O)O)c2)nc2ccccc2c1=O 5.74%
CN(C)c1nc(N)nc(CSc2nnnn2-c2cccc3ccccc23)n1 -21.8%
Cc1ccccc1Nc1nnc(C)c(=O)[nH]1 -0.615%
COCCn1c(=O)[nH]c2cc(C(=O)N3CCN(c4cccc(Cl)c4)CC3)ccc2c1=O -3.14%
O=S(=O)(NCc1ccccn1)c1ccc2ccccc2c1 15.4%
COC(=O)C1CCN(C(=O)Cc2c(OC)ccc3cc(Br)ccc23)CC1 -0.233%
CCN(CC(=O)Nc1cccc(OC)c1)CC(=O)Nc1ccc(Br)c(C)c1 -67.4%
CCOC(=O)Nc1ccc2c(c1)N(C(=O)CN(CC)CC)c1ccccc1C=C2 0.048%
CCOC(=O)c1c(NC(C)=O)sc2c(O)c(CN3CCN(CC)CC3)ccc12 -10.9%
O=C(CNC(=O)C1CCCCC1)OCC(=O)c1ccc(Br)cc1 7%
Cc1ccc(OCc2ccc(C#N)cc2)c(C(=O)c2cc(C#N)c(=O)n(C3CC3)c2)c1 -2.47%
N#CCC(CNc1ncc(C(F)(F)F)cc1Cl)OC(=O)c1ccc(Cl)cc1Cl (centres undefined) 7.88%
CN(Cc1cccc2cnccc12)C(=O)c1cc(COc2ccc(F)cc2F)on1 -16.1%
COC(=O)C(NNc1ccccc1C)(NC(=O)c1ccc(F)cc1)C(F)(F)F (centres undefined) 18.4%
CCOC(=O)COc1ccc2ccccc2c1/C=C/[N+](=O)[O-] -112%
C=CCN1C(=O)NC(c2ccccc2)(C(F)(F)F)S/C1=C(\C#N)c1nnc(N2CCOCC2)n1-c1ccccc1 (centres undefined) -40%
CCc1cc(C(=O)c2ccc(OC)cc2)c(N)s1 0.691%
CCNC(=S)N1CCN(S(=O)(=O)c2cccc(C(F)(F)F)c2)CC1 6.4%
Cc1ccc([N+](=O)[O-])cc1N=Nc1c(-c2ccc([N+](=O)[O-])cc2)[nH]n(C(N)=S)c1=O -67%
Cc1cccc(C)c1OCC(=O)NCc1nnc(SCC(=O)NC2CCCCC2C)n1C (centres undefined) -6.61%
COc1ccc(N/C=C(\C=C\C#N)S(=O)(=O)c2ccccc2)cc1 2.06%
COCc1cc(CN2CCN(CCc3ccccc3)C(CCO)C2)ccc1OC (centres undefined) -12.6%
O=C(CSc1nnc(-c2ccncc2)n1Cc1ccco1)N1c2ccccc2Sc2ccc(Cl)cc21 -3.27%
CS/C(Nc1cc(Cl)ccc1Cl)=C(/C#N)C(=O)c1ccco1 -49.6%
COC(=O)c1cn(NC(=O)C2CCC(C)CC2)c(=O)c2ccccc12 (centres undefined) -4.09%
Nc1nc(N)c(C=Nc2ccc(Br)cc2)c(Nc2ccc(Br)cc2)n1 -45.5%
CCc1nn(C(C)C(=O)NC(C)CCc2ccco2)c(=O)c2cc3occc3n12 (centres undefined) -7.46%
O=C(NCCn1cccn1)C1CCC(=O)N(CCc2cccc(F)c2)C1 (centres undefined) 2.1%
COC(=O)c1ccc(CSc2nnnn2-c2ccc(C)cc2C)o1 -6.78%
CCC(=O)Nc1c(S(=O)(=O)c2ccccc2)c2nc3ccccc3nc2n1C(C)c1ccccc1 (centres undefined) -20.5%
CC(=O)Nc1ccc(NC(=O)c2ccc(NS(=O)(=O)c3cc(C(C)(C)C)cc(C)c3C)cc2)cc1 -108%
COc1ccc(/C=N/n2cncn2)cc1COc1ccc(NC(C)=O)cc1 -15.9%
CCOC(=O)c1c(COc2ccccc2)oc2ccc(O)cc12 -12.8%
Cc1ccc(O)c(NC(=O)Cc2ccc3ccccc3c2)c1 0.04%
O=C(C=C=Nc1ccccc1)C(=O)N=C=Cc1ccccc1 -110%
Cc1ccc(C(=O)NC2CCCN(c3ccc(C(F)(F)F)cn3)C2)cn1 (centres undefined) -1.39%
Cc1ccc(-c2nn[nH]n2)cc1 12.1%
COc1ccc2[nH]c3c(C)c4ccncc4c(C)c3c2c1 -99.7%
Oc1[nH]c2ccccc2c1N=NC(=S)N1CCOCC1 -86.4%
O=C(CCl)c1ccc2c(c1)CCN2C(=O)C1CCCCC1 -12.1%
Cc1cc(C(=O)N/N=C/c2ccc([N+](=O)[O-])s2)c2ccccc2n1 -39.8%
O=C(CCn1c(=O)oc2ccccc21)Nc1ccccc1 5.77%
COC(CNC(=O)C1CCCN(S(=O)(=O)c2c(C)noc2/C=C/c2cccs2)C1)OC (centres undefined) -8.13%
O=C(CC1SC(=NCCc2ccccc2)N(/N=C/c2cccs2)C1=O)Nc1ccc(Cl)cc1 (centres undefined) 14.8%
CCN(CC)c1ccc([N+](=O)[O-])cc1C(=O)N1CCOCC1 1.22%
Cc1cccc(C(=O)NNC(=O)CCn2nnc3ccccc32)c1 14.8%
O=C(O)c1cc(-c2ccc(Cl)c(Cl)c2)n(-c2ccccc2)n1 -5.53%
O=C(COC(=O)c1cn(-c2ccccc2)nc1-c1ccccc1)c1ccc([N+](=O)[O-])cc1 -19.1%
COc1cc(NC(=O)c2cc([N+](=O)[O-])ccc2NC(=O)CNC2CCCCC2C)cc(OC)c1 (centres undefined) -47.9%
CCOC(=O)C1C(=O)OC(C)(C)C1C(C)C(=O)c1ccc(C)cc1C (centres undefined) -4.34%
CC(Oc1ccc(Cl)cc1)C(=O)OCC(=O)Nc1ncc(Cl)cc1Cl (centres undefined) 0.542%
COC(=O)CNC(c1ccccc1)c1cc(Br)ccc1N (centres undefined) -2.2%
Cc1cc2nc3c(=O)n(CCc4ccccc4)c(=O)[nH]c3nc2cc1N 6.23%
Cc1ccc(N(Cc2ccc(C(=O)Nc3ccccc3C(=O)NCc3ccco3)cc2)S(C)(=O)=O)cc1C -8.84%
Cc1cccc(NC(=S)N=Nc2c(O)[nH]c3ccccc23)c1 -34%
O=C(COc1ccc(Cl)cc1)NCCCNC(=O)c1ccccn1 -9.69%
FC(F)(F)c1ccc(Sc2nnc(-c3cccs3)n2CC2CCCO2)nc1 (centres undefined) 5.38%
CCCn1nc([N+](=O)[O-])c(C(C#N)c2nc3ccccc3o2)c(Cl)c1=O (centres undefined) -72.7%
Cn1c(Sc2ccc(C(F)(F)F)cc2[N+](=O)[O-])nnc1-c1ccccc1 -17.7%
O=C(CCCN1C(=O)c2cccc3cccc(c23)C1=O)Nc1ccon1 9.55%
O=C1C2CCCCN2C(=O)N1CCCN1CCN(c2ccc(F)cc2)CC1 (centres undefined) 2.81%
COc1ccc(C(=O)c2coc3ccc(O)c(CN(C)C)c23)cc1 15.4%
COc1ccc(CN2CC(C(=O)NCCCN3CCOCC3)CC2=O)cc1 (centres undefined) 0.184%
CCCCn1c(SCC(=O)c2ccc(O)c(O)c2)nc2ccsc2c1=O -75.2%
COc1ccc(CNC(=O)CN(Cc2ccccc2)C(=O)CCC(=O)Nc2nccs2)cc1 5.51%
COc1ccc(/C=c2\s/c(=C\C(=O)C(C)(C)C)[nH]c2=O)cc1O -30.3%
COc1ccc(C(=O)NC(=S)N2CCCCC2c2cccnc2)cc1OC (centres undefined) 7%
O=[N+]([O-])c1ccc(-c2nc(C(Cl)Cl)c3ccccc3n2)cc1 -99.1%
CC(C)c1ccc(N(C(=O)CNC(=O)c2ccco2)C(C(=O)NC2CCCC2)c2ccncc2)cc1 (centres undefined) 6.83%
COCc1cc(CN2CCCC(C(=O)Nc3ccc(-c4ccco4)cc3)C2)ccc1OC (centres undefined) 11.2%
CCn1c(-c2ccccc2)c(C(=O)CCl)c2ccccc21 -107%
CCOC(=O)c1sc(NC(=O)CCN2CCC(C)CC2)c(C(=O)OCC)c1C 34.9%
CCC1CCC2(CC1)SCC(=O)N2c1ccccc1 (centres undefined) -4.25%
COc1ccc(C2Nc3ccccc3C(=O)N2Cc2ccco2)cc1COc1ccc(F)cc1 (centres undefined) -24%

Ordered by molecular weight (largest number first): some entries from above
activation, inactive:
CCC(=O)Nc1c(S(=O)(=O)c2ccccc2)c2nc3ccccc3nc2n1C(C)c1ccccc1 (centres undefined) -20.5%
COCCn1c(=O)[nH]c2cc(C(=O)N3CCN(c4cccc(Cl)c4)CC3)ccc2c1=O -3.14%
FC(F)(F)c1ccc(Sc2nnc(-c3cccs3)n2CC2CCCO2)nc1 (centres undefined) 5.38%
Oc1[nH]c2ccccc2c1N=NC(=S)N1CCOCC1 -86.4%
CCn1c(=O)c([N+](=O)[O-])c(Cl)c2ccccc21 -99%
